Test results reported in patent publication US7582604B2 (Polyphor Ltd., priority 2002, dated 2009).
HELM strings list residues between dots; [ac] is acetyl, [am] amide, other brackets name non-standard units.

assay: general procedure: Fmoc solid-phase peptide synthesis; Fmoc-ProO-chlorotritylresin (2-chlorotrityl polystyrene); conditions: whole synthesis

Substance | final purity (method not given) [%]
PEPTIDE1{R.W.L.K.K.R.R.W.K.Q.Y.R.[dP].P}$PEPTIDE1,PEPTIDE1,1:R1-14:R2$$$V2.0 | 100
PEPTIDE1{R.W.L.K.K.R.R.W.K.T.Y.R.[dP].P}$PEPTIDE1,PEPTIDE1,1:R1-14:R2$$$V2.0 | 54
PEPTIDE1{R.W.L.K.K.R.R.W.K.Y.L.R.[dP].P}$PEPTIDE1,PEPTIDE1,1:R1-14:R2$$$V2.0 | 24
PEPTIDE1{R.W.L.K.K.R.R.W.K.Y.Q.R.[dP].P}$PEPTIDE1,PEPTIDE1,1:R1-14:R2$$$V2.0 | 100
PEPTIDE1{R.W.L.K.K.R.R.W.K.Y.V.R.[dP].P}$PEPTIDE1,PEPTIDE1,1:R1-14:R2$$$V2.0 | 100
PEPTIDE1{R.W.L.K.K.R.R.W.L.Y.Y.R.[dP].P}$PEPTIDE1,PEPTIDE1,1:R1-14:R2$$$V2.0 | 100
PEPTIDE1{R.W.L.K.K.R.R.W.V.Y.Y.R.[dP].P}$PEPTIDE1,PEPTIDE1,1:R1-14:R2$$$V2.0 | 100
PEPTIDE1{R.W.L.V.K.R.R.W.K.Y.Y.R.[dP].P}$PEPTIDE1,PEPTIDE1,1:R1-14:R2$$$V2.0 | 100
